Patent US8741944B2, “Anti-infective agents against intracellular pathogens” (priority 2007, dated 2014)
Read-outs that look alike come from different tables or passages of the source.

What was measured:
KM12 (Colon Cancer) = experiment: NCI DTP tumor cell line screen (SRB), KM12
MOLT-4 (Leukemia) = experiment: NCI DTP tumor cell line screen (SRB), MOLT-4
UO-31 (Renal Cancer) = experiment: NCI DTP tumor cell line screen (SRB), UO-31
[1] = test system: HOP-62 (Non-Small Cell Lung Cancer); experiment: NCI DTP tumor cell line screen (SRB), HOP-62
[2] = test system: NCI-H460 (Non-Small Cell Lung Cancer)
HT29 (Colon Cancer) = experiment: NCI DTP tumor cell line screen (SRB), HT29
TK-10 (Renal Cancer) = experiment: NCI DTP tumor cell line screen (SRB), TK-10
[3] = test system: NCI-H522 (Non-Small Cell Lung Cancer)
OVCAR-5 (Ovarian Cancer) = experiment: NCI DTP tumor cell line screen (SRB), OVCAR-5

Substance: 4-[5-(2-Phenanthrenyl)-3-(trifluoromethyl)-1H-pyrazol-1-yl]-phenyl -guanidine [Compound 71]
- Mean Optical Densities (KM12 (Colon Cancer); KM12, Log10 Concentration −4.0): 0.307
- Mean Optical Densities (KM12 (Colon Cancer); KM12, Log10 Concentration −5.0): 0.013
- Mean Optical Densities (KM12 (Colon Cancer); KM12, Log10 Concentration −6.0): 1.777
- Mean Optical Densities (KM12 (Colon Cancer); KM12, Log10 Concentration −7.0): 1.832
- Mean Optical Densities (KM12 (Colon Cancer); KM12, Log10 Concentration −8.0): 1.867
- Mean Optical Densities (MOLT-4 (Leukemia); MOLT-4, Log10 Concentration −4.0): 0.143
- Mean Optical Densities (MOLT-4 (Leukemia); MOLT-4, Log10 Concentration −5.0): 0.143
- Mean Optical Densities (MOLT-4 (Leukemia); MOLT-4, Log10 Concentration −6.0): 0.461
- Mean Optical Densities (MOLT-4 (Leukemia); MOLT-4, Log10 Concentration −7.0): 0.736
- Mean Optical Densities (MOLT-4 (Leukemia); MOLT-4, Log10 Concentration −8.0): 0.833
- Mean Optical Densities (UO-31 (Renal Cancer); UO-31, Log10 Concentration −4.0): 0.288
- Mean Optical Densities (UO-31 (Renal Cancer); UO-31, Log10 Concentration −5.0): −0.030
- Mean Optical Densities (UO-31 (Renal Cancer); UO-31, Log10 Concentration −6.0): 1.332
- Mean Optical Densities (UO-31 (Renal Cancer); UO-31, Log10 Concentration −7.0): 1.407
- Mean Optical Densities (UO-31 (Renal Cancer); UO-31, Log10 Concentration −8.0): 1.375
- Mean Optical Densities ([1]; HOP-62, Log10 Concentration −4.0): 0.329
- Mean Optical Densities ([1]; HOP-62, Log10 Concentration −5.0): 0.011
- Mean Optical Densities ([1]; HOP-62, Log10 Concentration −6.0): 1.255
- Mean Optical Densities ([1]; HOP-62, Log10 Concentration −7.0): 1.267
- Mean Optical Densities ([1]; HOP-62, Log10 Concentration −8.0): 1.285
- Mean Optical Densities ([2]; NCI-H460, Log10 Concentration −4.0): 0.257
- Mean Optical Densities ([2]; NCI-H460, Log10 Concentration −5.0): 0.011
- Mean Optical Densities ([2]; NCI-H460, Log10 Concentration −6.0): 1.650
- Mean Optical Densities ([2]; NCI-H460, Log10 Concentration −7.0): 1.658
- Mean Optical Densities ([2]; NCI-H460, Log10 Concentration −8.0): 1.654
- Mean Optical Densities (HT29 (Colon Cancer); HT29, Log10 Concentration −4.0): 0.003
- Mean Optical Densities (HT29 (Colon Cancer); HT29, Log10 Concentration −5.0): −0.054
- Mean Optical Densities (HT29 (Colon Cancer); HT29, Log10 Concentration −6.0): 1.136
- Mean Optical Densities (HT29 (Colon Cancer); HT29, Log10 Concentration −7.0): 1.238
- Mean Optical Densities (HT29 (Colon Cancer); HT29, Log10 Concentration −8.0): 1.276
- Mean Optical Densities (TK-10 (Renal Cancer); TK-10, Log10 Concentration −4.0): 0.245
- Mean Optical Densities (TK-10 (Renal Cancer); TK-10, Log10 Concentration −5.0): −0.021
- Mean Optical Densities (TK-10 (Renal Cancer); TK-10, Log10 Concentration −6.0): 0.998
- Mean Optical Densities (TK-10 (Renal Cancer); TK-10, Log10 Concentration −7.0): 1.087
- Mean Optical Densities ([3]; NCI-H522, Log10 Concentration −4.0): 0.439
- Mean Optical Densities ([3]; NCI-H522, Log10 Concentration −5.0): 0.037
- Mean Optical Densities ([3]; NCI-H522, Log10 Concentration −6.0): 1.471
- Mean Optical Densities ([3]; NCI-H522, Log10 Concentration −7.0): 1.558
- Mean Optical Densities ([3]; NCI-H522, Log10 Concentration −8.0): 1.509
- Mean Optical Densities (OVCAR-5 (Ovarian Cancer); OVCAR-5, Log10 Concentration −4.0): 0.474
- Mean Optical Densities (OVCAR-5 (Ovarian Cancer); OVCAR-5, Log10 Concentration −5.0): −0.033
- Mean Optical Densities (OVCAR-5 (Ovarian Cancer); OVCAR-5, Log10 Concentration −6.0): 1.559
- Mean Optical Densities (OVCAR-5 (Ovarian Cancer); OVCAR-5, Log10 Concentration −7.0): 1.437
- Mean Optical Densities (OVCAR-5 (Ovarian Cancer); OVCAR-5, Log10 Concentration −8.0): 1.538
